# Assay results from publication PMC7819943, “Rice protein-binding microarrays: a tool to detect cis-acting elements near promoter regions in rice”.
# The chains behind the UniProt entries cited, without tags or fusion partners.
# UniProt Q0JBA9, entry or part of it: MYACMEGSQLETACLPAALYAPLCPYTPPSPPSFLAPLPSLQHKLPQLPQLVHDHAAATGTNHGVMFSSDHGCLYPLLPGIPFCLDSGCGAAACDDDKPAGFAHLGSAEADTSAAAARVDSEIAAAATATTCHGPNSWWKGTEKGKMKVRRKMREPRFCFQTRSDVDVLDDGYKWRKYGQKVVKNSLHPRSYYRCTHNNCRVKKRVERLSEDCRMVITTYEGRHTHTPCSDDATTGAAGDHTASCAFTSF
# This is one part of the list.
# Target: OsWRKY34 (Oryza sativa, UniProt Q0JBA9 1-250)
# Assay: protein-binding microarray (RPBM); PBS, 2% BSA, 51.3 ng/ul salmon testes DNA, 50 uM zinc acetate, 200 nM TF, 25 C, 1 h; high values mean tight binding
# Conditions: protein: recombinant; tags: N-terminal polyhistidine and DsRed monomer fusion (pET32a); label: CyDye5-dUTP incorporated in the synthesized complementary strand; 3' TTTTT single-stranded linker to array surface; dsDNA, one strand shown
# In short: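 A custom Agilent array was converted to double-stranded form by primer extension with Cy5-dUTP and blocked with 2% BSA. Protein at 200 nM in PBS with 2% BSA, salmon testes DNA and 50 µM zinc acetate was applied for 1 h at 25 °C, followed by washing. The proteins were polyhistidine–DsRed N-terminal fusions of transcription factors, expressed in E. coli BL21-CodonPlus and Ni–NTA-purified. The binding signal is per-feature fluorescence intensity (arbitrary units) from an Axon 4000B scanner.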
row,Sequence,binding signal
1,CCTGCGCCGGAGTCGCCGATGGCCACCTTCTCACGGCTTACGGAGTCACCTAGTGCAG,9180 fluorescence intensity (a.u.)
2,GGTTTATTTGCTACGATCTGAACAGACCTTATTTTTTGGCCGGAGTCACCTAGTGCAG,8650 fluorescence intensity (a.u.)
3,TGTCTTTATTTTCCAGCGTTTACCTAGTAGTGCTGTCAAACGGAGTCACCTAGTGCAG,8200 fluorescence intensity (a.u.)
4,CAATGACCTTTTTTTTTCCTCTCTCTGTTGCTTCCGATATCGGAGTCACCTAGTGCAG,8500 fluorescence intensity (a.u.)
5,GTTCGTCATCAGATGGCGATGGGTTCAGTGATGGCGTTGACGGAGTCACCTAGTGCAG,8600 fluorescence intensity (a.u.)
6,CATCTGCACTTGATTTCTTATTCACGCAACTCCATTAAAGCGGAGTCACCTAGTGCAG,9760 fluorescence intensity (a.u.)
7,GGACGCTTTTCGCCTTGTTGGTGCACTGTCCCCTTCGTCTCGGAGTCACCTAGTGCAG,8060 fluorescence intensity (a.u.)
8,CTATCATAATATTTGACCTAGACATTTTTTTTTCCTTCAACGGAGTCACCTAGTGCAG,8390 fluorescence intensity (a.u.)
9,AAATATGTACTGCTGGTGGTTCTGTGTTTCCTCTGTTTGACGGAGTCACCTAGTGCAG,11800 fluorescence intensity (a.u.)
10,ACTTACTGTACCTGCATAAATACATAAACACATACCATATCGGAGTCACCTAGTGCAG,8750 fluorescence intensity (a.u.)
11,AGTGTGTGCGTGGTATGAGCGCTTGTGTTTTTTTACCTTTCGGAGTCACCTAGTGCAG,8800 fluorescence intensity (a.u.)
12,TCTGCGCGGACTGGACCACCATGCTAGTTTACTCTATTTTCGGAGTCACCTAGTGCAG,8080 fluorescence intensity (a.u.)
13,CTTGGCTTGGTTTGGTTTGGTGTTTGATCACGCGGTGGTGCGGAGTCACCTAGTGCAG,20800 fluorescence intensity (a.u.)
14,ATCTTCTTCTTCATCGCTGTGCAGCTACACACTCTCACTGCGGAGTCACCTAGTGCAG,10000 fluorescence intensity (a.u.)
15,GCCGCCCGCCGCCCCTGCCTGCCCAATCCGCCTGTCTCTCCGGAGTCACCTAGTGCAG,8270 fluorescence intensity (a.u.)
16,TCCCCGTCTTTTCCTTCCGCCTCACCAACCTCGTCTCGTCCGGAGTCACCTAGTGCAG,9830 fluorescence intensity (a.u.)
17,GGTGATGAACTCTTGCCTCTTTGACCAGCCTTGATTTTCCCGGAGTCACCTAGTGCAG,9270 fluorescence intensity (a.u.)
18,CTTCTCTCTCCCTTTTATAATAGTTGTTTTGATTTTTTTACGGAGTCACCTAGTGCAG,8840 fluorescence intensity (a.u.)
19,TGGTGTTATATATTTTTTTTAAAAAAGTCAACATGTATTTCGGAGTCACCTAGTGCAG,8880 fluorescence intensity (a.u.)
20,GACCCGAACTTCTTCCCATTGTGGAATTTGCAATCTTTTTCGGAGTCACCTAGTGCAG,8900 fluorescence intensity (a.u.)
21,TTCATATATATGCCTGTCTCGGATTAAAGTTTTGCTCGTCCGGAGTCACCTAGTGCAG,8240 fluorescence intensity (a.u.)
22,TCTTACATGGTTCATTACATTTCCACTTGTACCAGATATGCGGAGTCACCTAGTGCAG,9140 fluorescence intensity (a.u.)
23,TCTTTTCGCGAATTAAATACACATTTCTTTTTTTTTTTCACGGAGTCACCTAGTGCAG,8590 fluorescence intensity (a.u.)
24,CTAGTTAAAGTTTGATTTGTTATTTTCGTTACAACTTGTACGGAGTCACCTAGTGCAG,8240 fluorescence intensity (a.u.)
25,CGGTTTCACTTTCACGTCGTCTCGTACTAACTTCTGTATCCGGAGTCACCTAGTGCAG,12700 fluorescence intensity (a.u.)
26,TTAAATTTTGCTTCATGTGTCACATCAATGCTACGTTTTTCGGAGTCACCTAGTGCAG,10300 fluorescence intensity (a.u.)
27,TAAATGTTTAACGTCGTTGACTTTTTTAAACATGTATGACCGGAGTCACCTAGTGCAG,19200 fluorescence intensity (a.u.)

# Retrieved one by one from the entries so far (5):
row,Sequence,binding signal
15,GCCGCCCGCCGCCCCTGCCTGCCCAATCCGCCTGTCTCTCCGGAGTCACCTAGTGCAG,8270 fluorescence intensity (a.u.)
6,CATCTGCACTTGATTTCTTATTCACGCAACTCCATTAAAGCGGAGTCACCTAGTGCAG,9760 fluorescence intensity (a.u.)
11,AGTGTGTGCGTGGTATGAGCGCTTGTGTTTTTTTACCTTTCGGAGTCACCTAGTGCAG,8800 fluorescence intensity (a.u.)
4,CAATGACCTTTTTTTTTCCTCTCTCTGTTGCTTCCGATATCGGAGTCACCTAGTGCAG,8500 fluorescence intensity (a.u.)
18,CTTCTCTCTCCCTTTTATAATAGTTGTTTTGATTTTTTTACGGAGTCACCTAGTGCAG,8840 fluorescence intensity (a.u.)

# Remaining list, next part:

row,Sequence,binding signal
1,TCCAATCTAATGGCTTCCTCTCTTCTCTGCGCCTCGCCGCCGGAGTCACCTAGTGCAG,9630 fluorescence intensity (a.u.)
2,TCCTCGGATGATTTGCGTCCGTCCGTTTGTTCACGCTCTACGGAGTCACCTAGTGCAG,13200 fluorescence intensity (a.u.)
3,AACTTGAATGCTACTCTTATATCTTTATATGTCGACTCACCGGAGTCACCTAGTGCAG,9230 fluorescence intensity (a.u.)
4,TGAATCCCATAGTTTTCACTGCTTTACTGATACTGATGCTCGGAGTCACCTAGTGCAG,9470 fluorescence intensity (a.u.)
5,TAGAGAAGTTTTCGGGGTTTTTATTTCTCTTTTTTTTTTCCGGAGTCACCTAGTGCAG,8150 fluorescence intensity (a.u.)
6,ATCCTGTCCCCGGTCTTATCTCCACTTGGACACACCCCGACGGAGTCACCTAGTGCAG,8890 fluorescence intensity (a.u.)
7,ATCCACCGCTTCTCAGCCTCTTCCACATACATCCATCCTGCGGAGTCACCTAGTGCAG,9770 fluorescence intensity (a.u.)
8,GTGGGAGGGGAGCCCATCAAGATCATTGACTTGACTTGACCGGAGTCACCTAGTGCAG,8940 fluorescence intensity (a.u.)
9,CACTCGCCCATCTCTCTCTCCCGCCGCTCTCTCCCTCTCCCGGAGTCACCTAGTGCAG,9210 fluorescence intensity (a.u.)
10,GAGTCTTGCACTCTTGCTTCCATTTGCTTCGCACATGTTTCGGAGTCACCTAGTGCAG,8120 fluorescence intensity (a.u.)
11,CACTGTTTTTATTTCTTTTCTTTTATCTTCTTAAAATATCCGGAGTCACCTAGTGCAG,10400 fluorescence intensity (a.u.)
12,CCCGTCTCCTCGCCTGCCGATCTCCATCCTGCTAGCAGAGCGGAGTCACCTAGTGCAG,8930 fluorescence intensity (a.u.)
13,CCATCTCGCTCGCTCACTCATGTCACTCGTCAGCCACTTCCGGAGTCACCTAGTGCAG,11000 fluorescence intensity (a.u.)
14,AGAACTTTCCGGCCAATTTTTTTATACCCTCCTGATCAGTCGGAGTCACCTAGTGCAG,8500 fluorescence intensity (a.u.)
15,ATACCATGATCACGAGGTATTCATTTCATGTAACAATTTTCGGAGTCACCTAGTGCAG,8100 fluorescence intensity (a.u.)
16,TAATCTTGCCATGATTTTTATACCCATGCACTTCCTTTCCCGGAGTCACCTAGTGCAG,8410 fluorescence intensity (a.u.)
17,TGTTTTGGACTTTTTGGTCAACGGCCCATCAAAGCAAGCCCGGAGTCACCTAGTGCAG,13000 fluorescence intensity (a.u.)
18,CAGTTTGACCTCTTCCACTTGTTGTTTCACCTGATCAGCTCGGAGTCACCTAGTGCAG,9130 fluorescence intensity (a.u.)
19,CTGTCTCGGTCCCCGTCTACGTCGTCTCTCGCATTTTTCCCGGAGTCACCTAGTGCAG,10800 fluorescence intensity (a.u.)
20,CAACATATGCCCCGGCCCATTTACACCGCCCCGCGATAAACGGAGTCACCTAGTGCAG,8440 fluorescence intensity (a.u.)
21,GTTCTTCTTCTTCTTCTTCTTTTTTTCGTCCAAGGCCACTCGGAGTCACCTAGTGCAG,8280 fluorescence intensity (a.u.)
22,CGGCGACCGCGATGGTGGGGAAGCGGGTGGGGAAATGGGACGGAGTCACCTAGTGCAG,8180 fluorescence intensity (a.u.)
23,TACCGCGTCTCTTTCCCTTTCATCTCTGGTTTTTGCAGATCGGAGTCACCTAGTGCAG,9840 fluorescence intensity (a.u.)
24,ATGCATCCACATCTTGCTACTGCGATTCGATAGCCGGTGACGGAGTCACCTAGTGCAG,14500 fluorescence intensity (a.u.)
25,ACCACCACCACCACCACCATCCCCGGAAAAAATCTTTTTCCGGAGTCACCTAGTGCAG,10900 fluorescence intensity (a.u.)
26,ATGATGACATCAATGGTGGGTTTTGCATGGAATCTATACACGGAGTCACCTAGTGCAG,11900 fluorescence intensity (a.u.)
27,AATTGATCTGAACTTTGCTTTCATCGTTGCTCAGTTAACCCGGAGTCACCTAGTGCAG,8220 fluorescence intensity (a.u.)
